# Reference: the supplement of paper PMC10849652
# Amino acid sequences for entries named in this document (tags omitted). A change or cut given only in a name is not applied to a line headed by its entry.
# UniProt Q9BUT9: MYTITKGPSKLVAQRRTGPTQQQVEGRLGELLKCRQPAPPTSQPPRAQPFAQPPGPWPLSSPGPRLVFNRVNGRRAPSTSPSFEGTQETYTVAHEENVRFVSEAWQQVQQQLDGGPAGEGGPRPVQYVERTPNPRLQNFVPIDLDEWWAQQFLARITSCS
# UniProt Q7L590: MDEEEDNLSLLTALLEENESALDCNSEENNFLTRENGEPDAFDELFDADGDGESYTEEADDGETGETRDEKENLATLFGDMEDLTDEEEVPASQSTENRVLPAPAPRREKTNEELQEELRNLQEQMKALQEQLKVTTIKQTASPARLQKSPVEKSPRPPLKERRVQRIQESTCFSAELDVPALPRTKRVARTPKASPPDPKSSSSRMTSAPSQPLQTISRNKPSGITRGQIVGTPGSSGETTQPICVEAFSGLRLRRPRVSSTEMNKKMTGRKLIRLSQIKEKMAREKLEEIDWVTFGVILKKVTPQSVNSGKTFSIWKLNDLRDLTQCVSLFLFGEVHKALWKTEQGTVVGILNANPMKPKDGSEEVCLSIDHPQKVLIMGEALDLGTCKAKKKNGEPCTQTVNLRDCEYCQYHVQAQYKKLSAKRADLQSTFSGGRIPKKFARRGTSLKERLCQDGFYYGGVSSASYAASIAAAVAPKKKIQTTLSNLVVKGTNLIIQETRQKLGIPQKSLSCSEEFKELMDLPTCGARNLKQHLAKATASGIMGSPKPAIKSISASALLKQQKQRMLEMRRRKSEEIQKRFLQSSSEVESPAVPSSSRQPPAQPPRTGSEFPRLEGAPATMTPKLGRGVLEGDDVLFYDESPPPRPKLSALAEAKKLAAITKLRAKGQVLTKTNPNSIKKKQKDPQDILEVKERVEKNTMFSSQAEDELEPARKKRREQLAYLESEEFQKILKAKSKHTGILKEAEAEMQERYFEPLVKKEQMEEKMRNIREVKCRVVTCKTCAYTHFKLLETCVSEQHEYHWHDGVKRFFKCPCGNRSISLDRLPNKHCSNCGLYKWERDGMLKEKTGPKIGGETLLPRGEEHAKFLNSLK
# UniProt Q9H3U5: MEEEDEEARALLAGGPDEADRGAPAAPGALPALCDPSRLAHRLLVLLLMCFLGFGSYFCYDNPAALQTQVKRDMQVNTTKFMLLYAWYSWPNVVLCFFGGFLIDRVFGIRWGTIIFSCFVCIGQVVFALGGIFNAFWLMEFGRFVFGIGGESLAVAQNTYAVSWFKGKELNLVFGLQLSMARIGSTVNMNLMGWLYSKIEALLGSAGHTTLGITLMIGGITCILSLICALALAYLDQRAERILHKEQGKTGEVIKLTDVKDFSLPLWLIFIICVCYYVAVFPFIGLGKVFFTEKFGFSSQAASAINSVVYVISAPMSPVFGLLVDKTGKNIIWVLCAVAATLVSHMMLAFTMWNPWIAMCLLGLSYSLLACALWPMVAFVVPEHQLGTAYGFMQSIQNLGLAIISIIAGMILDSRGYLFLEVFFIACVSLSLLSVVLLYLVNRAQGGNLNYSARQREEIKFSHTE
# UniProt Q8NHS3: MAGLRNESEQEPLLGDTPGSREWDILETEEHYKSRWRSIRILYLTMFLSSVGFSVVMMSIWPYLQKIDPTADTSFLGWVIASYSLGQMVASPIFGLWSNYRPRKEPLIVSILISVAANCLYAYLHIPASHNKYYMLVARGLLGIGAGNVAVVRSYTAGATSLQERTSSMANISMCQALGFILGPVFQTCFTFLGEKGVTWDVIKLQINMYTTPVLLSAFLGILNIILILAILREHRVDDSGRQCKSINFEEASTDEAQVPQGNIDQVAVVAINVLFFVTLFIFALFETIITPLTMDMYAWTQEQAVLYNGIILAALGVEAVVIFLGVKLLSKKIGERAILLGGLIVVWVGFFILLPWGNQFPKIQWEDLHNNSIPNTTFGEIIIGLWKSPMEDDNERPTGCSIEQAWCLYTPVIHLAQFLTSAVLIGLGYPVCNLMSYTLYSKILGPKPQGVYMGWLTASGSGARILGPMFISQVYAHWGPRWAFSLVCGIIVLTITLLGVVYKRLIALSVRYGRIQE
# UniProt Q8NE86: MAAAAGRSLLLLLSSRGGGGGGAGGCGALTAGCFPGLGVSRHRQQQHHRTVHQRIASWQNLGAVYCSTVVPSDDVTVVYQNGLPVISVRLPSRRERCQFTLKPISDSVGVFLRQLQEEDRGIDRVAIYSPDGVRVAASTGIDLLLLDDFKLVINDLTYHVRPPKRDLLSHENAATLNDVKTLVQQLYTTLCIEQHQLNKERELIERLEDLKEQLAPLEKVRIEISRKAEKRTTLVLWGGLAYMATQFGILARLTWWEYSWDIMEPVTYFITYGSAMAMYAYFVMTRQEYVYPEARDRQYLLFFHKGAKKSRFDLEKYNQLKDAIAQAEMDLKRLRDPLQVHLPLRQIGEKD
# UniProt Q9H204: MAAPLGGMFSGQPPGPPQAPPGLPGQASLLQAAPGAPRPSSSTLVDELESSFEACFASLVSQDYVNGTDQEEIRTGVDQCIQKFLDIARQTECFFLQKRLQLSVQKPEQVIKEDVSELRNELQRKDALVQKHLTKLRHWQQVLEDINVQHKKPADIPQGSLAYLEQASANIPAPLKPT
# UniProt Q96AQ8: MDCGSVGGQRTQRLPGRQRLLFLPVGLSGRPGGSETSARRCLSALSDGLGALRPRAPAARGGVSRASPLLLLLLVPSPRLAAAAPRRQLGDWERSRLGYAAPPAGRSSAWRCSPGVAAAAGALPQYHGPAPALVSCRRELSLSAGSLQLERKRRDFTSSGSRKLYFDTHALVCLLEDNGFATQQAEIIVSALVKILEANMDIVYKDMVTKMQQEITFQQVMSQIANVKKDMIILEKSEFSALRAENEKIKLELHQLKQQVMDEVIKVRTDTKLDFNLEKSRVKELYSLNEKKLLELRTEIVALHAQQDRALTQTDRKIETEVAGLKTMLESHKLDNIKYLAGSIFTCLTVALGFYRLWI
# UniProt Q7L2J0: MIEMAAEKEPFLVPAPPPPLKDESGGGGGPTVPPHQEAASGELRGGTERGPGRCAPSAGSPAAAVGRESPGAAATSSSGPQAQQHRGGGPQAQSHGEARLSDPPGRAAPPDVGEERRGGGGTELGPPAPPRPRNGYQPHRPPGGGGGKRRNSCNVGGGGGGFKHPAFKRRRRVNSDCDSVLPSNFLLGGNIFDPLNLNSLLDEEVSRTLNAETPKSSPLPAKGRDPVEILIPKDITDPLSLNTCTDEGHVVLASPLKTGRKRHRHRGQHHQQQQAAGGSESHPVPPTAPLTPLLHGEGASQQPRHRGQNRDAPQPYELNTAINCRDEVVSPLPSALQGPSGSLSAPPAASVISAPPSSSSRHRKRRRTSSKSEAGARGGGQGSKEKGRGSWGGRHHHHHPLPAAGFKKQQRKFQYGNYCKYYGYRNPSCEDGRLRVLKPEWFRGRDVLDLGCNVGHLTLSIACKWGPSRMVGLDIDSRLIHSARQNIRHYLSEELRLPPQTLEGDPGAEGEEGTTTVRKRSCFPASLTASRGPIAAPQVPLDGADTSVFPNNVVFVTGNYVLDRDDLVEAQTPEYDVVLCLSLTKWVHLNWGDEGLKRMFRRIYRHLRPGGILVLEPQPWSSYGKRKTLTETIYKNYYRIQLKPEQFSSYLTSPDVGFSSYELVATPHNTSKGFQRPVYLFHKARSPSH
# UniProt Q14680: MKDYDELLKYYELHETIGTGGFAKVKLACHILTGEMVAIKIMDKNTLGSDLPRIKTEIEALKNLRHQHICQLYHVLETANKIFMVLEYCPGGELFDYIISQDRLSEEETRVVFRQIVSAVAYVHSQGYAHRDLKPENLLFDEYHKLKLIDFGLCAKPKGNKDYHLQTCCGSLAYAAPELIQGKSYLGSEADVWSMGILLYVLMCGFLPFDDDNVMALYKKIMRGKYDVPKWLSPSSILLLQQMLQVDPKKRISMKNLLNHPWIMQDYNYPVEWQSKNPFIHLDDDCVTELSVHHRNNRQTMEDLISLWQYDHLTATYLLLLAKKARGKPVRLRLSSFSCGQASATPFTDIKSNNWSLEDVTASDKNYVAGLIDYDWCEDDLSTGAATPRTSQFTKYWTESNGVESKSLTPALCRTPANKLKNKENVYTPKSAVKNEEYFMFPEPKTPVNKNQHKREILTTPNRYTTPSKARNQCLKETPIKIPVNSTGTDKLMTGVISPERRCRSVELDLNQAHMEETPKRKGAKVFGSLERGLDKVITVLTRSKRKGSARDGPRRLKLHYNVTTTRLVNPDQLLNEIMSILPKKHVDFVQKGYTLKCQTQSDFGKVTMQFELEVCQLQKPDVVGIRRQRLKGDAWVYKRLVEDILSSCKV
# UniProt Q13503: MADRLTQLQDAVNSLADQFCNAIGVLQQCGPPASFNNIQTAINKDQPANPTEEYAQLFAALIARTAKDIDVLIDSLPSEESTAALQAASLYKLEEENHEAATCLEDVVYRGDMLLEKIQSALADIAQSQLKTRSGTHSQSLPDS
# UniProt Q08431: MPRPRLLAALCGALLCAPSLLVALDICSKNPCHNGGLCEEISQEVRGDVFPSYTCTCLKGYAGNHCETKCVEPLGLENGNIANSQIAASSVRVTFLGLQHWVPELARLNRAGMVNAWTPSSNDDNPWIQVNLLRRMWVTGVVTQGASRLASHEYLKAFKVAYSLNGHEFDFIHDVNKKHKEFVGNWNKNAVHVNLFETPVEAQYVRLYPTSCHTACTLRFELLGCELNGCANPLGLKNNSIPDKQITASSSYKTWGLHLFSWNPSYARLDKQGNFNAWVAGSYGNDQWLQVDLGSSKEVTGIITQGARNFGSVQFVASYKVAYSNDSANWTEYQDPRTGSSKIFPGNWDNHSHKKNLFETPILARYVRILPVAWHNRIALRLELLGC
# UniProt Q9Y2X0: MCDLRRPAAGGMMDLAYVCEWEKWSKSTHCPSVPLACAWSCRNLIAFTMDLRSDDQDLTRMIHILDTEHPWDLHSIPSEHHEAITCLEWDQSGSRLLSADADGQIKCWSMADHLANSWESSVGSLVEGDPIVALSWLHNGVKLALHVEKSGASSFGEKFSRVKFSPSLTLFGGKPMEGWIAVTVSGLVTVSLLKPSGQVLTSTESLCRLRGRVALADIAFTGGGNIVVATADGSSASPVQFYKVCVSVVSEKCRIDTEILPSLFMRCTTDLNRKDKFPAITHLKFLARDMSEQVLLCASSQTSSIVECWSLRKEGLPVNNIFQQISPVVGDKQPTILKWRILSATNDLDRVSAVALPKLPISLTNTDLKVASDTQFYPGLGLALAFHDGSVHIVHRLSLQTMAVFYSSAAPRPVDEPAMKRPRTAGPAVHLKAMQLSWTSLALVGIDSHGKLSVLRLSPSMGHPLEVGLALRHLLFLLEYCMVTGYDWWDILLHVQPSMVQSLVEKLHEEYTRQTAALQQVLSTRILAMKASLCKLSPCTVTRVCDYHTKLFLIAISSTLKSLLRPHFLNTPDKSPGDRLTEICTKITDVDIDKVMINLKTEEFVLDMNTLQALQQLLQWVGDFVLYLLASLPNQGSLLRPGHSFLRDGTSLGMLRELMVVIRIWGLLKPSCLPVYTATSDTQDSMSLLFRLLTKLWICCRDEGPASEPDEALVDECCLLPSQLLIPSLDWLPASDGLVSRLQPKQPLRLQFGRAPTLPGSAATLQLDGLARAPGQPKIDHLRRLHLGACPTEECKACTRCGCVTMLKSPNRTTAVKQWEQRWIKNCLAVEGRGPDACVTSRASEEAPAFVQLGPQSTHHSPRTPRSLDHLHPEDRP
# UniProt A4D2B0: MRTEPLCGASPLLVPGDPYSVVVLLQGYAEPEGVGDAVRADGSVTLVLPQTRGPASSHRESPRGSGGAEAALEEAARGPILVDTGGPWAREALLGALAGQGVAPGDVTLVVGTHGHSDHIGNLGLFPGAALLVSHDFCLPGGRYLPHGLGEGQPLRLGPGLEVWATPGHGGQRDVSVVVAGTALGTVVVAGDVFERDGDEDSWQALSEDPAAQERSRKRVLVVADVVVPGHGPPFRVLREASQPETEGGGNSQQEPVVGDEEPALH
# UniProt P23368: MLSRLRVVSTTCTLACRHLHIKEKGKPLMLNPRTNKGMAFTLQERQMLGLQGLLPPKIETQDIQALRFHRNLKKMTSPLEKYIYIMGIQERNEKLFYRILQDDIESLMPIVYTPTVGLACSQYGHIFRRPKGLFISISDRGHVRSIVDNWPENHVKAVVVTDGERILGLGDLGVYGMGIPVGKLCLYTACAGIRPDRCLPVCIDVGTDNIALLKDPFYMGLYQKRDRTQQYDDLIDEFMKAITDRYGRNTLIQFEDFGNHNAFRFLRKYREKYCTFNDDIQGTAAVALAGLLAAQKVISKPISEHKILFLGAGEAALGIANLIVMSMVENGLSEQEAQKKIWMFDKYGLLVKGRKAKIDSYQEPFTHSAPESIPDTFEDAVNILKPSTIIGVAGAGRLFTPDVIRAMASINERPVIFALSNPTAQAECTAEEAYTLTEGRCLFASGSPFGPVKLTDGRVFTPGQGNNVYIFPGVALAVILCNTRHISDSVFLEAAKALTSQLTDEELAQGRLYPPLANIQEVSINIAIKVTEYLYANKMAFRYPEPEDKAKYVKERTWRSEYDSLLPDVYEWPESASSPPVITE
# The other results are listed elsewhere or left out.
# Assays:
# Experiment in all cases: log2 fold change, soluble protein after heating vs DMSO (PISA); higher = thermal stabilisation; K562 cells, 10 uM, 30 min; active = over 0.2 and 3.5 SD of the protein, either way, in both replicates (recomputed)
# [1] = compound: CC[C@@H]1C(=O)N(C)c2cnc(Nc3ccc(C(=O)NC4CCN(C)CC4)cc3OC)nc2N1C1CCCC1
# In short: (§1)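 Values are thermal stability changes relative to control samples and are taken from duplicates. They are stated as log2 fold changes. Before quantification by TMTpro 16plex LC-MS/MS with equalised channel sums, K562 cells at 2×10^6 cells/mL were treated with 10 μM compound for 30 min, heated in aliquots for 3 min across 48°C-58°C, pooled, extracted in PBS with 0.5% NP-40 at 4°C, and centrifuged at 21,000xg for 90 min to give the soluble supernatant.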
# volasertib = compound: CC[C@@H]1C(=O)N(C)c2cnc(Nc3ccc(C(=O)N[C@H]4CC[C@H](N5CCN(CC6CC6)CC5)CC4)cc3OC)nc2N1C(C)C [volasertib]
# In short: as §1
# epoxomicin = compound: CC[C@H](C)[C@@H](C(=O)N[C@@H]([C@@H](C)O)C(=O)N[C@@H](CC(C)C)C(=O)[C@]1(CO1)C)NC(=O)[C@H]([C@@H](C)CC)N(C)C(=O)C [epoxomicin]
# In short: as §1
# [2] = compound: CCn1c(C(=O)N(C2CC2)C2CC2)cc2c3c(ncn3C)c(Nc3cc(C)n(C)n3)nc21
# In short: as §1
# [3] = compound: CCn1cc(-c2ccnc3[nH]c(-c4cccc(CN(C)C)c4)cc23)c(-c2ccc(NC(=O)N(C)C)cc2)n1
# In short: as §1
# rosiglitazone = compound: CN(CCOC1=CC=C(C=C1)C[C@H]2C(=O)NC(=O)S2)C3=CC=CC=N3 (racemic) [rosiglitazone]
# In short: as §1
# [4] = compound: CN1C2=C(C3=C1C(=O)N(N=C3)CC4=CC(=CC=C4)N)SC(=C2)S(=O)C
# In short: as §1
# [5] = compound: CN1CCC(CNc2ccc3ncc(-c4cccc(OC(F)(F)F)c4)n3n2)CC1
# In short: as §1
# saracatinib = compound: CN1CCN(CCOc2cc(OC3CCOCC3)c3c(Nc4c(Cl)ccc5c4OCO5)ncnc3c2)CC1 [saracatinib]
# In short: as §1
# sotrastaurin = compound: CN1CCN(c2nc(C3=C(c4c[nH]c5ccccc45)C(=O)NC3=O)c3ccccc3n2)CC1 [sotrastaurin]
# In short: as §1
# alvocidib = compound: CN1CC[C@H](c2c(O)cc(O)c3c(=O)cc(-c4ccccc4Cl)oc23)[C@H](O)C1 [alvocidib]
# In short: as §1
# Tubastatin A = compound: CN1CCc2c(c3ccccc3n2Cc2ccc(C(=O)NO)cc2)C1 [Tubastatin A]
# In short: as §1
# [6] = compound: CNC(=O)C1=CC=CC=C1NC2=NC(=NC=C2Cl)NC3=C(C=C(C=C3)N4CCOCC4)OC
# In short: as §1
# rucaparib = compound: CNCc1ccc(-c2[nH]c3cc(F)cc4c3c2CCNC4=O)cc1 [rucaparib]
# In short: as §1
# [7] = compound: CNc1nc(-c2ccc3c(N)n[nH]c3c2)cc(N2C[C@@H](C(=O)NC3CCCCC3)CC[C@H]2C)n1
# In short: as §1
# encorafenib = compound: COC(=O)N[C@@H](C)CNc1nccc(-c2cn(C(C)C)nc2-c2cc(Cl)cc(NS(C)(=O)=O)c2F)n1 [encorafenib]
# In short: as §1
# [8] = compound: CC[C@H](C)N1C=C(C2=C(C=C(C=C21)C3=CN=C(C=C3)N4CCNCC4)C(=O)NCC5=C(C=C(NC5=O)C)C)C
# In short: as §1
# [9] = compound: CN(C)CC(=O)Nc1ccc2[nH]c(=O)c3ccccc3c2c1
# In short: as §1
# defactinib = compound: CNC(=O)c1ccc(Nc2ncc(C(F)(F)F)c(NCc3nccnc3N(C)S(C)(=O)=O)n2)cc1 [defactinib]
# In short: as §1
# [10] = compound: COC(=O)[C@H](CCSC)NC(=O)C1=C(C=C(C=C1)NC[C@H](CS)N)C2=CC=CC=C2
# In short: as §1
Target,log2 fold change [1],log2 fold change (volasertib),log2 fold change (epoxomicin),log2 fold change [2],log2 fold change [3],log2 fold change (rosiglitazone),log2 fold change [4],log2 fold change [5],log2 fold change (saracatinib),log2 fold change (sotrastaurin),log2 fold change (alvocidib),log2 fold change (Tubastatin A),log2 fold change [6],log2 fold change (rucaparib),log2 fold change [7],log2 fold change (encorafenib),log2 fold change [8],log2 fold change [9],log2 fold change (defactinib),log2 fold change [10]
MCRIP2 (UniProt Q9BUT9),inactive: -0.035,inactive: -0.083,inactive: -0.16,inactive: -0.042,inactive: -0.118,inactive: -0.005,inactive: 0.063,inactive: -0.037,inactive: 0.165,inactive: 0.106,inactive: 0.03,inactive: -0.016,inactive: -0.028,inactive: 0.093,inactive: -0.077,inactive: -0.063,,,,
MCM10 (UniProt Q7L590),inactive: -0.074,inactive: 0,inactive: 0.148,,inactive: -0.037,,,inactive: 0.096,,inactive: -0.09,,inactive: -0.017,inactive: 0.014,inactive: -0.021,,inactive: -0.049,inactive: -0.034,inactive: -0.023,inactive: 0.018,inactive: -0.007
MFSD1 isoform 6 (UniProt Q9H3U5),inactive: -0.022,inactive: 0.053,inactive: 0,,inactive: -0.069,,,inactive: -0.012,,inactive: -0.041,,inactive: -0.039,inactive: 0.066,inactive: -0.014,,inactive: -0.028,inactive: -0.01,inactive: -0.025,inactive: 0.046,inactive: -0.004
MAST4 (UniProt O15021),inactive: -0.059,inactive: -0.22,inactive: 0.048,,inactive: -0.102,,inactive: -0.115,inactive: -0.384,inactive: 0.006,inactive: -0.103,,inactive: 0.012,inactive: -0.087,inactive: -0.101,inactive: -0.006,inactive: 0.042,inactive: 0.073,inactive: -0.009,inactive: -0.149,inactive: -0.017
MFSD8 (UniProt Q8NHS3),inactive: -0.016,inactive: 0.032,inactive: -0.021,,inactive: -0.012,,inactive: 0.046,inactive: 0.127,inactive: 0.078,,,inactive: 0.023,inactive: -0.003,inactive: 0.039,inactive: -0.053,inactive: 0.012,,inactive: -0.061,inactive: -0.008,inactive: 0.003
MCU (UniProt Q8NE86),inactive: -0.147,active: -0.249,inactive: 0.075,,inactive: -0.048,,inactive: -0.045,active: -0.23,inactive: 0.039,inactive: -0.028,,inactive: 0.036,inactive: 0.013,inactive: -0.032,inactive: -0.014,inactive: -0.017,inactive: 0.014,inactive: 0.011,inactive: -0.043,inactive: -0.032
MED28 (UniProt Q9H204),inactive: 0.035,inactive: -0.075,,inactive: 0.125,inactive: -0.145,inactive: -0.036,inactive: -0.01,inactive: 0.028,inactive: -0.066,inactive: 0.005,inactive: -0.111,inactive: 0.005,inactive: -0.045,inactive: 0.041,inactive: 0.022,inactive: -0.067,inactive: 0.049,,,
MCUR1 (UniProt Q96AQ8),inactive: 0.022,inactive: 0.137,inactive: 0.009,,inactive: -0.041,,inactive: -0.042,inactive: -0.115,inactive: -0.002,inactive: 0.053,,inactive: 0.014,inactive: 0.014,inactive: -0.038,inactive: 0.014,inactive: -0.009,inactive: 0.006,inactive: -0.038,inactive: -0.047,inactive: -0.028
MCOLN3 (UniProt Q8TDD5),inactive: 0.094,inactive: -0.136,,,inactive: 0.027,,,inactive: -0.084,,,,inactive: -0.001,inactive: -0.141,inactive: -0.275,,inactive: -0.026,inactive: -0.071,,,
METAP1D (UniProt Q6UB28),inactive: 0.031,inactive: -0.082,inactive: 0.074,,,,inactive: 0.052,,inactive: 0.088,inactive: -0.042,,inactive: -0.181,inactive: 0.036,inactive: -0.074,inactive: 0.04,inactive: 0.006,inactive: 0.051,inactive: -0.065,inactive: 0.013,inactive: 0.006
METTL18 (UniProt O95568),inactive: 0.02,inactive: -0.159,inactive: -0.058,,inactive: 0,,inactive: 0.005,inactive: 0.015,inactive: 0.024,inactive: 0.066,,inactive: -0.037,inactive: -0.042,inactive: -0.041,inactive: -0.031,inactive: 0.108,inactive: 0.032,inactive: 0.006,inactive: -0.021,inactive: -0.176
MEPCE (UniProt Q7L2J0),inactive: -0.07,inactive: -0.209,inactive: -0.053,,inactive: -0.013,,inactive: 0.007,inactive: -0.051,inactive: -0.019,inactive: -0.022,,inactive: -0.104,inactive: -0.052,inactive: -0.056,inactive: 0.049,inactive: 0.067,inactive: 0.052,inactive: 0.061,inactive: -0.192,inactive: -0.077
MELK (UniProt Q14680),inactive: -0.429,active: -1.41,inactive: 0.077,,inactive: -0.114,,inactive: 0.034,inactive: -0.426,inactive: -0.005,inactive: 0.166,,inactive: 0.074,inactive: -0.347,inactive: 0.125,inactive: 0.196,inactive: 0.06,inactive: 0.334,,,
MED8 isoform 2 (UniProt Q96G25),inactive: 0.027,inactive: 0.1,inactive: -0.051,,,,inactive: 0.052,,inactive: 0.003,inactive: 0.044,,,inactive: 0.039,inactive: 0.04,inactive: -0.131,inactive: -0.024,inactive: 0.046,inactive: -0.075,inactive: -0.031,inactive: 0.141
MED21 (UniProt Q13503),inactive: 0.139,inactive: 0.052,,,inactive: 0.142,,,inactive: 0.121,,,inactive: -0.249,inactive: -0.109,,inactive: -0.018,,inactive: -0.207,inactive: -0.002,,,
MED1 (UniProt Q15648),inactive: 0.073,inactive: 0.077,inactive: -0.051,,inactive: -0.04,,inactive: 0.024,inactive: -0.025,inactive: 0.001,inactive: -0.092,,inactive: -0.025,inactive: 0.042,inactive: 0.067,inactive: -0.045,inactive: 0.009,inactive: 0.076,inactive: -0.054,inactive: -0.005,inactive: 0.033
MFGE8 (UniProt Q08431),inactive: 0.061,inactive: 0.362,inactive: -0.003,,inactive: -0.057,,inactive: 0.114,inactive: 0.098,inactive: -0.171,inactive: -0.013,,inactive: 0.08,inactive: 0.066,inactive: -0.043,inactive: -0.018,inactive: 0.037,inactive: -0.007,inactive: -0.103,inactive: 0.099,inactive: -0.023
MED16 (UniProt Q9Y2X0),inactive: 0.128,inactive: 0.101,inactive: -0.262,,inactive: 0.031,,inactive: 0.087,inactive: 0.06,inactive: -0.006,inactive: -0.044,,inactive: -0.098,inactive: 0.074,inactive: -0.004,inactive: 0.043,inactive: -0.025,inactive: 0.004,inactive: 0.086,inactive: -0.009,inactive: -0.052
MBLAC1 (UniProt A4D2B0),inactive: 0.112,inactive: 0.148,,,inactive: -0.01,,inactive: -0.021,inactive: 0.063,inactive: 0.164,,,,inactive: 0.049,inactive: 0.023,inactive: -0.005,inactive: 0.035,,inactive: 0.105,inactive: 0.003,inactive: -0.02
MED6 (UniProt O75586),inactive: -0.027,,inactive: -0.497,inactive: -0.072,inactive: 0.117,inactive: 0.114,,inactive: 0.064,,inactive: 0.159,inactive: -0.132,,inactive: -0.032,inactive: -0.035,,inactive: -0.045,inactive: -0.103,inactive: 0.014,inactive: 0.025,inactive: 0.044
ME2 (UniProt P23368),inactive: 0.164,active: 0.445,inactive: 0.108,,inactive: -0.015,,inactive: -0.02,inactive: 0.145,inactive: 0.061,inactive: 0.014,,inactive: 0.026,inactive: 0.151,inactive: -0.011,inactive: -0.11,inactive: 0.015,inactive: 0.006,inactive: -0.002,inactive: -0.037,inactive: 0.034

# Quoted at random: 2 entries already listed.
Target,log2 fold change [1],log2 fold change (volasertib),log2 fold change (epoxomicin),log2 fold change [2],log2 fold change [3],log2 fold change (rosiglitazone),log2 fold change [4],log2 fold change [5],log2 fold change (saracatinib),log2 fold change (sotrastaurin),log2 fold change (alvocidib),log2 fold change (Tubastatin A),log2 fold change [6],log2 fold change (rucaparib),log2 fold change [7],log2 fold change (encorafenib),log2 fold change [8],log2 fold change [9],log2 fold change (defactinib),log2 fold change [10]
METAP1D (UniProt Q6UB28),inactive: 0.031,inactive: -0.082,inactive: 0.074,,,,inactive: 0.052,,inactive: 0.088,inactive: -0.042,,inactive: -0.181,inactive: 0.036,inactive: -0.074,inactive: 0.04,inactive: 0.006,inactive: 0.051,inactive: -0.065,inactive: 0.013,inactive: 0.006
MELK (UniProt Q14680),inactive: -0.429,active: -1.41,inactive: 0.077,,inactive: -0.114,,inactive: 0.034,inactive: -0.426,inactive: -0.005,inactive: 0.166,,inactive: 0.074,inactive: -0.347,inactive: 0.125,inactive: 0.196,inactive: 0.06,inactive: 0.334,,,
